The target of this test is FLAG-tagged wild-type PITX1 (paired-like homeodomain 1) (human) (UniProt P78337). Put plainly: affinity purification with mass spectrometry; whole cell extracts of U2OS cells stably expressing FLAG-PITX1; anti-FLAG M2 affinity gel, 24 h at 4°C, lysis buffer 100 mM Tris HCl pH 7.5, 300 mM NaCl, 2 mM EDTA, 2% Triton X-100; eluted with FLAG peptide; trypsin digest, nanoLC/MS/MS; control: empty FLAG vector cells.

Chains of the proteins cited; added tags and fusions are not shown. Lines headed by an entry give the natural chain unless they say otherwise; changes in a name come on top. A line that says so, or that is headed by a name, gives the form on record, which may keep a tag or linker. Residues count along the entry.
UniProt P78337: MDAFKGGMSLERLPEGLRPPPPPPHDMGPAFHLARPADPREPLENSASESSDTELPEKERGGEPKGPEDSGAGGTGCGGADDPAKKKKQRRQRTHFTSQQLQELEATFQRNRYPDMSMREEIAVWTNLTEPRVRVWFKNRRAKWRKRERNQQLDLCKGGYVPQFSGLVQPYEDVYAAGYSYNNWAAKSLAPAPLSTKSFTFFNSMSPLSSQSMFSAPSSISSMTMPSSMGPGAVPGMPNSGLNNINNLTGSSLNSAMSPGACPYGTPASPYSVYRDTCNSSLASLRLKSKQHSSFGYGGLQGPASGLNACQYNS
UniProt P31943: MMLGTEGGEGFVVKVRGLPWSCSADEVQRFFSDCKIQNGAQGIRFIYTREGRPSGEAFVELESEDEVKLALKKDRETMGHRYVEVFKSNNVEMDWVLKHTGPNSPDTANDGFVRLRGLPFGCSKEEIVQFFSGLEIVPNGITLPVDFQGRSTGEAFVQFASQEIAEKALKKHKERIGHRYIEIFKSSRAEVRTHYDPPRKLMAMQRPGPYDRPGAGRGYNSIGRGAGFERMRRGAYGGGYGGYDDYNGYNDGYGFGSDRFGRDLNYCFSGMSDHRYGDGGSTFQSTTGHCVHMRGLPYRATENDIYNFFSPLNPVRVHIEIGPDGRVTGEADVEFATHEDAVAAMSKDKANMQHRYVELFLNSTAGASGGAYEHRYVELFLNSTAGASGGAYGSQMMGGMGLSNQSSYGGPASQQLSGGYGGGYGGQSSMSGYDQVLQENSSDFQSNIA
Heterogeneous nuclear ribonucleoprotein A/B (hnRNP A/B) (Q99729-3, form named): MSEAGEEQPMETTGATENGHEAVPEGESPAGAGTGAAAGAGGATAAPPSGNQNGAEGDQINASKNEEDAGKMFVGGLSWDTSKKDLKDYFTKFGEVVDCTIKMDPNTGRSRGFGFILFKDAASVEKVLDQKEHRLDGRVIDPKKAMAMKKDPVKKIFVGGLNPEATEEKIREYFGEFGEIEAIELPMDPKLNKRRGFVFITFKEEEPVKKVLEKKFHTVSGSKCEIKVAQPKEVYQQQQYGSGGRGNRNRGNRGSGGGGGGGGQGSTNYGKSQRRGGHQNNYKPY
Nucleophosmin (NPM1) (P06748-3, form named): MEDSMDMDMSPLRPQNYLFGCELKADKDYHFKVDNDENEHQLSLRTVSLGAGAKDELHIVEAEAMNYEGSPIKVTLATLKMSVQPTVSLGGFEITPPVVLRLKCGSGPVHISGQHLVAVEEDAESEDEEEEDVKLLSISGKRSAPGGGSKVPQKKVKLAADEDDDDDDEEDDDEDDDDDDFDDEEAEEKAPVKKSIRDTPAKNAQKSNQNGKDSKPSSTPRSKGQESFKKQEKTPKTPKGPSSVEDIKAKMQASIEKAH
UniProt P38646, residues 47-679: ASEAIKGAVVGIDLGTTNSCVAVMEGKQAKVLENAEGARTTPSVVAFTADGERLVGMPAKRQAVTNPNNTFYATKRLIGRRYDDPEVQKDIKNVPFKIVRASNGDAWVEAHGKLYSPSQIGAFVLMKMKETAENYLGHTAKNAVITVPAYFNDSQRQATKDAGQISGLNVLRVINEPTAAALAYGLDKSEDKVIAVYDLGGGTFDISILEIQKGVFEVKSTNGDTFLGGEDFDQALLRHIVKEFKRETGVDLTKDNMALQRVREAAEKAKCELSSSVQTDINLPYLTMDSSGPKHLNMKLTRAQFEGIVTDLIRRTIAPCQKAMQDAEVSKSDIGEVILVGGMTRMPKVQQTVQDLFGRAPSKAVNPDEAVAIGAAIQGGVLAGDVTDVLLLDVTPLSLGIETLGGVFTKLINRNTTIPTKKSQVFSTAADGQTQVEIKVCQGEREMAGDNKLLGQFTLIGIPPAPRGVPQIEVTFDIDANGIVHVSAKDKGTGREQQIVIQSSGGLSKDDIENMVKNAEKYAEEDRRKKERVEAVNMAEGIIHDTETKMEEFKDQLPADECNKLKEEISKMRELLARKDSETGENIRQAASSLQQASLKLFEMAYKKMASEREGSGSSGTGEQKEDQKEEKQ

No constants are given. Whether binding was seen depends on the method and setting. In cells and extracts the contact can be indirect. A yes stands for co-enrichment or nearness to the bait. Other partners may have been found.

Regarding “Heterogeneous nuclear ribonucleoprotein H (hnRNP H) (from UniProt P31943 1-449)”, the binding result is “binds”.

For “Heterogeneous nuclear ribonucleoprotein A/B (hnRNP A/B) (from UniProt Q99729-3 1-285)”, the binding entry was “binds”. As for “Nucleophosmin (NPM1) (from UniProt P06748-3 1-259)”, the binding entry is reported as “binds”. For “Zinc finger CCHC domain-containing protein 10 (ZCCHC10), endogenous (from UniProt Q8TBK6-1 1-192)”, the binding result is “binds”. On to “75 kDa glucose-regulated protein (HSPA9) (from UniProt P38646 47-679)”, for which the binding result is “binds”.

B1: Heterogeneous nuclear ribonucleoprotein A0 (hnRNP A0) (protein, UniProt Q13151 1-305)
chain: MENSQLCKLFIGGLNVQTSESGLRGHFEAFGTLTDCVVVVNPQTKRSRCFGFVTYSNVEEADAAMAASPHAVDGNTVELKRAVSREDSARPGAHAKVKKLFVGGLKGDVAEGDLIEHFSQFGTVEKAEIIADKQSGKKRGFGFVYFQNHDAADKAAVVKFHPIQGHRVEVKKAVPKEDIYSGGGGGGSRSSRGGRGGRGRGGGRDQNGLSKGGGGGYNSYGGYGGGGGGGYNAYGGGGGGSSYGGSDYGNGFGGFGSYSQHQSSYGPMKSGGGGGGGGSSWGGRSNSGPYRGGYGGGGGYGGSSF
For the molecule B1, the binding entry is “binds”.
